Results are given in words; binding and its absence hold for the method and conditions named. For some of these results: In cells and extracts the contact can be indirect. Some binding calls cover weakened binding; strength is not graded here. For some of these results: Sequences can lack the tags named with a protein.
What was measured:
[1] = biological target: AtPGIP1-nRFP (Arabidopsis thaliana) (UniProt Q9M5J9); assay: split reporter; BiFC with nRFP and cRFP fusions co-agroinfiltrated into N. benthamiana leaves; confocal microscopy 48 h after agroinfiltration
[2] = biological target: AtPGIP1-3xFlag (Arabidopsis thaliana) (UniProt Q9M5J9); assay: co-IP; modified co-IP: purified competing protein from yeast (0, 100 ng and 10 μg) added to leaf lysate of co-infiltrated leaves, 30 min, then Flag IP and anti-GFP blot; pair of the added purified protein with AtPGIP1-3xFlag of the lysate; only the binder purified
[3] = biological target: SsPINE1-GFP (expressed in N. benthamiana) (Sclerotinia sclerotiorum); assay: co-IP; GFP- and 3xFlag-tagged constructs co-infiltrated in N. benthamiana; leaf lysate 48 h after infiltration; anti-Flag agarose (Flag IP) or anti-GFP agarose (GFP IP); Western blot with anti-GFP or anti-Flag
[4] = biological target: AtPGIP1-3xFlag (Arabidopsis thaliana) (UniProt Q9M5J9); assay: as above
[5] = biological target: AtPGIP1-3xFlag (Arabidopsis thaliana) (UniProt Q9M5J9); assay: co-IP; modified co-IP: purified competing protein from yeast (0, 100 ng and 10 μg) added to leaf lysate of co-infiltrated leaves, 30 min, then Flag IP and anti-GFP blot; pair co-expressed in the leaves
[6] = biological target: AtPGIP1-3xFlag (Arabidopsis thaliana) (UniProt Q9M5J9); assay: co-IP; modified co-IP: the three constructs SsPINE1-GFP, SsPG1-GFP and AtPGIP1-3xFlag co-infiltrated together into tobacco leaves; Flag IP, anti-GFP blot
[7] = biological target: signal peptide-truncated SsPINE1 (SsPINE1^ΔSP), yeast two-hybrid fusion (Sclerotinia sclerotiorum); assay: two-hybrid; targeted assay, GAL4-based Matchmaker Gold; pGADT7 and pGBKT7 constructs co-transformed in pairs into yeast strain Gold; SD/-His,-Ade,-Leu,-Trp with aureobasidin A, X-α-gal staining; SsPINE1 and AtPGIP1 each as bait and as prey

Protein sequences, listed by entry. Tags and fused reporters are not part of them. Residues count along the entry.
UniProt Q9M5J9, residues 22-330: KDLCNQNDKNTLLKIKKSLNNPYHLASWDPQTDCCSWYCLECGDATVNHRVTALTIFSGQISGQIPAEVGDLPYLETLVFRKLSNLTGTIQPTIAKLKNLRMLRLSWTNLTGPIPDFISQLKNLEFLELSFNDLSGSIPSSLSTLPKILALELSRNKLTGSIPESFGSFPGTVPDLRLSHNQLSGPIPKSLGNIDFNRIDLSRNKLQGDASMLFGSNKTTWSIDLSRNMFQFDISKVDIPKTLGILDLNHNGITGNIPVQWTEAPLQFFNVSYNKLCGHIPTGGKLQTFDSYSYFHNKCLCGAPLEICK
UniProt A0A1D9QD76, residues 22-105: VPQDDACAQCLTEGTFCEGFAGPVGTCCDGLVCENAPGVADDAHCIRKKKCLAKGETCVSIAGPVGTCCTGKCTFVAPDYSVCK

Molecule: SsPINE1-cRFP (from UniProt A0A1D9QD76 22-105)
- binding [1]: binds

Molecule: purified SsPINE1-GFP-His fusion protein from yeast (from UniProt A0A1D9QD76 22-105) (domain or fragment)
- binding [2]: binds

Molecule: AtPGIP1-3xFlag (from UniProt Q9M5J9 22-330)
- binding [3]: binds

Molecule: SsPINE1-GFP (expressed in N. benthamiana) (from UniProt A0A1D9QD76 22-105)
- binding [4]: binds
- binding [5]: binds
- binding [6]: binds

B1: AtPGIP2, yeast two-hybrid fusion (protein, UniProt Q9M5J8 1-330)
chain: MDKTMTLFLLLSTLLLTTSLAKDLCHKDDKTTLLKIKKSLNNPYHLASWDPKTDCCSWYCLECGDATVNHRVTSLIIQDGEISGQIPPEVGDLPYLTSLIFRKLTNLTGHIQPTIAKLKNLTFLRLSWTNLTGPVPEFLSQLKNLEYIDLSFNDLSGSIPSSLSSLRKLEYLELSRNKLTGPIPESFGTFSGKVPSLFLSHNQLSGTIPKSLGNPDFYRIDLSRNKLQGDASILFGAKKTTWIVDISRNMFQFDLSKVKLAKTLNNLDMNHNGITGSIPAEWSKAYFQLLNVSYNRLCGRIPKGEYIQRFDSYSFFHNKCLCGAPLPSCK
- binding [7]: no binding
